pEC50: −log10 of the molar value.
Biological target: T1, hNPR-A (Homo sapiens, UniProt P16066)
T1 sequence (P16066 33-1061): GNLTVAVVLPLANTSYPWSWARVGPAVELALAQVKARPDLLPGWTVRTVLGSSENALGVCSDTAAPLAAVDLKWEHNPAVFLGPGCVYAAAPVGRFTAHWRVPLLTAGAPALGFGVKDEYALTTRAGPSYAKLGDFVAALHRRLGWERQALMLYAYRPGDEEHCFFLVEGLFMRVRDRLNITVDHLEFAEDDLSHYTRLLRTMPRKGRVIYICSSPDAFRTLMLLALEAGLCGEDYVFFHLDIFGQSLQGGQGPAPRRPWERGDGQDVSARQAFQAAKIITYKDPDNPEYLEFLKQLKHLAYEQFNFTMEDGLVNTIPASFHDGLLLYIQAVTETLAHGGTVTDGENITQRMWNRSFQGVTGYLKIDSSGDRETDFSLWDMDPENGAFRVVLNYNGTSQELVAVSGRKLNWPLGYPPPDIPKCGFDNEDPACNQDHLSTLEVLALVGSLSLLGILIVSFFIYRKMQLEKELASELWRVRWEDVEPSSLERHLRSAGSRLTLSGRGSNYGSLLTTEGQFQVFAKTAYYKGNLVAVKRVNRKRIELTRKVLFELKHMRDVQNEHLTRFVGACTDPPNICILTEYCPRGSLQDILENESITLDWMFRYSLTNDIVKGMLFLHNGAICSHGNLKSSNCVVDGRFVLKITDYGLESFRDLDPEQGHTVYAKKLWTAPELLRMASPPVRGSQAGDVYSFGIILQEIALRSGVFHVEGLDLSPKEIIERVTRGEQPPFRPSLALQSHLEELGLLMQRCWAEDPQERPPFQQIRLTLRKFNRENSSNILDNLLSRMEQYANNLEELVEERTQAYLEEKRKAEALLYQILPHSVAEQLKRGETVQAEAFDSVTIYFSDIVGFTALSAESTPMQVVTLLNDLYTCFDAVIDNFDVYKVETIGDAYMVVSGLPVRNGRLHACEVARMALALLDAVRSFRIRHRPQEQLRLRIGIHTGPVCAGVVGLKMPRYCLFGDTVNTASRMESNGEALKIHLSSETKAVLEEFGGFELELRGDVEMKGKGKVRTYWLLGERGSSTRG
Test: Accumulation of intracellular cGMP in HEK-293 cells expressing recombinant hNPR-A (EC50)
Assay type: cell-based
Procedure: Pelleted cells were resuspended in Hank's Balanced Salt Solution (HBSS) containing 10 mM Hepes (pH 7.4), 5 mM MgCl2, 200 mM L-glutamine, 1 mM 1,10-phenanthroline and BSA (0.5 mg/mL). Following centrifugation, cells were resuspended in the above buffer supplemented with 0.5 mM 3-isobutyl-1-methylxanthine (IBMX). […] The reaction was terminated by lysis of the cells with temperature shock. […] Accumulation of cGMP was measured using the cGMP Flashplate RIA (Perkin-Elmer). Data analysis and EC50 values were determined by using nonlinear regression analysis with GraphPad Prism® software.

pEC50: 9.70
Structure (SMILES): CCCC[C@@H]1NC[C@H](C(=O)N[C@H]2CSSC[C@@H](C(=O)N[C@@H](Cc3ccc(O)cc3)C(=O)N3C[C@H](C(N)=O)NC(=O)[C@@H]3CCCNC(=N)N)NC(=O)[C@H](CO)NC(=O)[C@H]([C@@H](C)CC)NC(=O)[C@H](CCCNC(=N)N)NC(=O)[C@H](CC(=O)O)NC(=O)[C@H](CCCC)NC(=O)[C@H](CCCNC(=N)N)NC(=O)CNC(=O)CNC(=O)[C@H](Cc3ccccc3)NC(=O)[C@H](Cc3c[nH]cn3)NC2=O)NC1=O [1-18]
